According to article PMC12040169 (PLOS Biology, 2025):
The list shows a part of the results.

These compounds were tested on T1, CTL2-GFP (C. trachomatis L2/434/Bu, GFP-expressing). Details: bulk GFP, single well; 28.5 h, 10 µM; inhibitor.
T1 construct: L2/434/Bu, GFP-expressing
Set-up: species or system HeLa; Intracellular C. trachomatis growth in HeLa cells, bulk GFP fluorescence relative to DMSO

Structure (SMILES) | % of control remaining [%]
COc1ccc(S(=O)(=O)N2CCCCC2C(=O)O)cc1 (stereo not shown) [CBK077424] | 180.603
O=C(/C=C/c1ccc([N+](=O)[O-])cc1)c1ccc(O)c(O)c1 [CBK265028] | 90.894
O=C(Nc1sc2c(c1C(=O)O)CCC2)c1cccs1 [CBK152437] | 117.667
OC(CN[C@H]1CC[C@](O)(c2ccc(Cl)cc2)CC1)c1ccccc1 (stereo partly shown) [CBK016206] | 139.039
CC(=O)c1ccc(NC(=O)N(C)c2c(C)nc3ccc(C(=O)N4CCN(C(=O)c5ccco5)CC4)cn23)cc1 [CBK146930] | 118.063
O=C(NCC1(CCO)CCOC1)c1c[nH]nc1-c1cc2ccccc2o1 (stereo not shown) [CBK305492] | 127.472
O=C1CCC(C(=O)N2CC3(CCCC3)c3c(F)cccc32)CN1 (stereo not shown) [CBK304914] | 73.5935
Cc1ccc(-c2csc(NC(=O)c3ccc(F)cc3)n2)cc1 [CBK095107] | 133.559
CN(CCc1ccncc1)C(=O)c1[nH]nc2c1CCCCC2 [CBK283151] | 112.613
O=C(NCc1ccc(OC2CCNCC2)cc1)c1cnccn1 [CBK036359T] | 103.572
Cc1cc(C)n(CC(=O)NCC(c2c(F)cccc2F)N(C)C)n1 (stereo not shown) [CBK305510] | 104.511
O=C(Cc1ccc(F)cc1)N1C2CCC1CC(O)(c1ccco1)C2 (stereo not shown) [CBK284033] | 131.022
O[C@@H]1C[C@@H](c2nc(-c3ccc(F)cc3)no2)N(Cc2ncc[nH]2)C1 [CBK288849] | 114.208
Cc1nn(-c2ccccc2)c(O)c1/C=N/c1ccccc1Sc1c(C)n[nH]c1C [CBK262048] | 105.055
O=C(O)C1(NCc2ccc(F)cc2)CCCCC1 [CBK287270] | 152.592
O=S(=O)(Nc1ncc(Br)c2cccnc12)c1cccc(C(F)(F)F)c1 [CBK073884] | 100.822
COc1ccc(C2SCCCS2)cc1C(C)(C)C [CBK018886] | 100.871
Cc1cc(C)n(-c2nc3cc(Cl)ccc3nc2NCc2ccc3c(c2)OCO3)n1 [CBK268482] | 95.9751
Cc1[nH]c2cccc(C(=O)N3CCCCC3CCNC(=O)c3ccccc3)c2c1C (stereo not shown) [CBK285976] | 60.4085
Cn1cncc1C(=O)NC1Cc2ccccc2C1 [CBK200362] | 137.662
O=C1S/C(=C\c2ccc(O)c([N+](=O)[O-])c2)C(=O)N1Cc1ccc(F)cc1 [CBK102928] | 100
Cc1occc1SCC(=O)Nc1ccc(CN2CCOCC2)cc1 [CBK306453] | 124.695
O=C(c1ccccc1)c1ccc(OCCO)cc1 [CBK000725] | 109.326
COCCN(Cc1nccs1)C(=O)C1CCc2nn(C)c(=O)n2C1 (stereo not shown) [CBK306506] | 121.224
CCCN1CCC(CNC(=O)c2cnn(-c3ccc(F)cc3)c2)CC1 [CBK282466] | 96.5069

As a short view, part of the list above.
Structure (SMILES) | % of control remaining [%]
OC(CN[C@H]1CC[C@](O)(c2ccc(Cl)cc2)CC1)c1ccccc1 (stereo partly shown) [CBK016206] | 139.039
CC(=O)c1ccc(NC(=O)N(C)c2c(C)nc3ccc(C(=O)N4CCN(C(=O)c5ccco5)CC4)cn23)cc1 [CBK146930] | 118.063

More compounds follow.

Structure (SMILES) | % of control remaining [%]
Nc1ncc(-c2ccoc2)nc1Nc1ccc2[nH]ccc2c1 [CBK063868] | 111.301
Cc1noc(C)c1NC(=O)c1cn(C)c2ccccc12 [CBK200312] | 108.271
CC1CCCN(Cc2nc3c([nH]2)c(=O)n(C)c(=O)n3C)C1 (stereo not shown) [CBK306054] | 133.185
CCNC(=O)N1CC2(CCN(Cc3ccc4ccccc4c3)CC2)c2ccccc21 [CBK126696] | 107.309
CS(=O)(=O)c1ccc(-c2cccc(COC3CCN(C(=O)Cc4cccc5ccccc45)CC3)c2)cc1 [CBK149510] | 85.5928
C/C(=N\NC(=O)CNC(=O)c1ccc(Br)cc1)c1ccccc1 [CBK262020] | 117.749
COc1cccc2sc(Nc3nc4ccc(S(C)(=O)=O)cc4s3)nc12 [CBK287472] | 132.314
Cc1cc(Cn2ccc(C(F)(F)F)n2)c(C)c(-c2c(C#N)c(N)nc3c2CCCCC3)c1 [CBK267928] | 96.5737
N#Cc1cccc(CN2CCCC3(CCN(C(=O)c4cc(F)c(F)cc4F)C3)C2)c1 (stereo not shown) [CBK131993] | 103.51
O=C(O)c1ccc(-c2ccc(/C=C/c3nc(O)c([N+](=O)[O-])c(=O)[nH]3)o2)cc1Cl [CBK267354] | 161.815
C=CCn1c(Cc2csc(NC(=O)c3ccc([N+](=O)[O-])c(C)c3)n2)n[nH]c1=S [CBK295323] | 158.536
Nc1ncc(-c2cccc(/C=C/C(=O)O)c2)nc1NCCCO [CBK063887] | 116.386
CS(=O)(=O)N1CC[C@H](c2nc3cc(Cl)ccc3o2)C1 [CBK289370] | 110.177
CN(C)CCCNC(=O)c1cc(-c2ccc(Cl)cc2)[nH]n1 [CBK116564T] | 117.365
O=c1oc2ccc(Cl)cc2n1C1CCN(Cc2ccco2)CC1 [CBK284342] | 78.5925
COc1ccccc1N1CCN(c2nccc3sc(S(=O)(=O)NCc4ccc(C(F)(F)F)c(F)c4)cc23)CC1 [CBK038270C] | 106.334
O=C(NCCN1CCOCC1)C1CCN(Cc2ccccc2O)CC1 [CBK264324] | 140.808
[O-][n+]1c2c([n+]([O-])c3c1CCCC3)CCCCC2 [CBK263586] | 100
CCOC(=O)Cc1csc(SCC(=O)N2CCc3ccccc32)n1 [CBK306190] | 135.774
O=C(NCc1ccncc1)c1nccnc1-c1ccc(COc2ccccc2)cc1 [CBK050836] | 124.549
Cc1ccc(S(=O)(=O)Oc2cccc(C(c3c(C)n[nH]c3O)c3c(C)n[nH]c3O)c2)cc1 [CBK265016] | 116.674
O=C(Nc1ncnc2c1nc(OCc1ccccc1)n2C1CC(O)C(CO)O1)c1ccccc1 (stereo not shown) [CBK201220] | 135.905
Cc1ccc2nsnc2c1NC(=O)COc1ccc([N+](=O)[O-])cc1 [CBK033705] | 125.33
O=C(CSc1ncnc2ccccc12)N(Cc1ccccc1F)C1CC1 [CBK295610] | 122.72
